Results published in patent US12144874B2, “Synthesis and composition of photodynamic therapeutic agents for the targeted treatment of cancer” (On Target Laboratories, LLC, priority 2015, dated 2024).
Not every detail of the peptide structures is certain; ends, links or a residue may be inferred.

Tested on: subcutaneous KB tumor
Test: In vivo PDT efficacy on growth of subcutaneous KB tumor xenograft in nude mice
Details: 50 nmol dose, laser 75 mW/cm^2, 137 J/cm^2, 38 min, 3 h after injection
Description: The growth of the tumor was monitored (images were taken) and tumor volume was measured using caliper.
In the following examples, the in vivo efficacy of the compounds is determined using KB tumor cell xenograft in nude mice. In these studies, KB cells were implanted subcutaneously and growth of the tumors was monitored. […] Moreover, once tumors grow to […], the compounds were injected via tail vein. […] In vivo efficacy of BPheid-a was evaluated by monitoring reduction of tumor volume.
KB cells that overexpressed folate receptor were implanted subcutaneously into female nude mice and allowed to grow to ˜50 mm^3 prior to initiation of treatment with 50 nmol of BPheid-a (1). […] In vivo efficacy of BPheid-a was evaluated by monitoring reduction of tumor volume.

Structure (SMILES): CC[C@H]1c2cc3[nH]c4c(c3C)C(=O)C(C(=O)OC)c4c3nc(cc4[nH]c(cc(n2)[C@@H]1C)c(C(C)=O)c4C)[C@@H](C)[C@@H]3CCC(=O)NCCCC(NC(=O)c1ccc(N(C)Cc2cnc3nc(N)nc(N)c3n2)cc1)C(=O)NNC(=O)OCCSSC[C@H](NC(=O)[C@H](CC(=O)NCCS(=O)(=O)O)NC(=O)CC[C@H](NC(=O)c1ccc(NCc2cnc3nc(N)[nH]c(=O)c3n2)cc1)C(=O)O)C(=O)O (stereo partly shown) [Compound 117]
- Effect on growth of subcutaneous KB tumor, in words: completely cure the tumor and showed tumor regression for 3 weeks
